Results on one substance are retold here after publication PMC3065274.

Amino acid sequences for entries named in this document (tags omitted).
UniProt P35222: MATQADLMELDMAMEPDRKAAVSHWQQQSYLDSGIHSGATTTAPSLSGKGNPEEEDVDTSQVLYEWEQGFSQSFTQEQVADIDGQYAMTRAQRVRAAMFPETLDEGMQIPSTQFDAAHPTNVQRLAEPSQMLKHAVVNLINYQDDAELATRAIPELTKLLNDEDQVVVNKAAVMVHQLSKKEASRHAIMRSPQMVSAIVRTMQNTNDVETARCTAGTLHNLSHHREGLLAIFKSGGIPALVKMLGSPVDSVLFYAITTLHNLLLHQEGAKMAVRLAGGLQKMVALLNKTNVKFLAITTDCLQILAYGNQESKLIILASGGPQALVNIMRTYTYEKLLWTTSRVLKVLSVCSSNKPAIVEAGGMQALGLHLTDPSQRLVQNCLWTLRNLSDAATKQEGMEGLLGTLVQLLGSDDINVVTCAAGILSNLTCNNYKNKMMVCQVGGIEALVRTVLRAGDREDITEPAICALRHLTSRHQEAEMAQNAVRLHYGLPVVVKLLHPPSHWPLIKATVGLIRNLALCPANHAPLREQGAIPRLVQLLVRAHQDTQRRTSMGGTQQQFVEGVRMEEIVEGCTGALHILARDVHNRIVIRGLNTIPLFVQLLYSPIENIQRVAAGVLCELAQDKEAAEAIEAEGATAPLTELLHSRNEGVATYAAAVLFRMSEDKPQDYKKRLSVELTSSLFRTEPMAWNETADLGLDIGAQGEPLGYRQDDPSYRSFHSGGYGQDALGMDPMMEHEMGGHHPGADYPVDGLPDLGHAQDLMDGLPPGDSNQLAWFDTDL

These are yes or no findings as the source states them, for the method shown. Binding seen in cells or lysates may run through a third protein. Some results given as binding are weak or reduced against the parent protein; the word gives no strength.

The target of this assay is β-catenin (human (endogenous in NIH:OVCAR3)) (UniProt P35222). The experiment in a line: co-IP; lysate from adherent NIH:OVCAR3 cells, endogenous proteins; immunoprecipitated with anti-CA125/MUC16 (M11), anti-E-cadherin or anti-β-catenin antibody, control IgG alongside; in the presence or absence of EGF; immunoblot.

For the substance “CA125/MUC16 mucin (from UniProt Q8WXI7 1-14507)”, the binding entry was “binds”.
